From patent US20080139493A1, “Bi- or Tetra-Guanidino-Biphenyl Compounds as Small Molecule Carriers” (priority 2004, published 2008)
At least one compound was matched to its structure with a doubt left.

Test system: Human osteosarcoma cells (U2OS)
Assay: Uptake and sub-cellular localization by confocal microscopy
Type: cell-based
Conditions: 10 μM, 10 minutes incubation, no fixation
Experimental: In order to observe the ability of the di-guanidine and tetra-guanidine compounds to transport small molecules, they were coupled to FITC, which emits light at 514 nm after laser excitation at 492 nm. Human osteosarcoma cells (U2OS) were cultured on glass coverslips and incubated for 10 minutes with each compound to a final concentration of 10 μM. They were compared to FITC conjugated to TAT and FITC alone. After incubation, cells were rinsed in PBS and mounted, without fixation, onto slides and visualized by confocal microscopy. […] Cells were visualized under higher magnification (63×), to assess sub-cellular localization of the FITC.

Which “sub-cellular localization of the FITC at higher magnification (63×)” value does the source give for `O=C1OC2(c3ccc(O)cc3Oc3cc(O)ccc32)c2ccccc21` (single isomer, unassigned; isomer i) [FITC alone, fluorescein isothiocyanate isomer I, reference compound] here?
Its value is “nonspecific uptake of fluorescein was detected in small cytoplasmic compartments”.
